In publication PMC4776236:
No constants are given. Whether binding was seen depends on the method and setting. In cells and extracts the contact can be indirect. Some results given as binding are weak or reduced against the parent protein; the word gives no strength. For part of these data: Where a sequence is shown, tags or fusion partners need not be part of it. One block for each molecule: values may come before it.

Sequences of proteins named here, by UniProt entry; tags and fusion partners are left off.
UniProt Q95V55: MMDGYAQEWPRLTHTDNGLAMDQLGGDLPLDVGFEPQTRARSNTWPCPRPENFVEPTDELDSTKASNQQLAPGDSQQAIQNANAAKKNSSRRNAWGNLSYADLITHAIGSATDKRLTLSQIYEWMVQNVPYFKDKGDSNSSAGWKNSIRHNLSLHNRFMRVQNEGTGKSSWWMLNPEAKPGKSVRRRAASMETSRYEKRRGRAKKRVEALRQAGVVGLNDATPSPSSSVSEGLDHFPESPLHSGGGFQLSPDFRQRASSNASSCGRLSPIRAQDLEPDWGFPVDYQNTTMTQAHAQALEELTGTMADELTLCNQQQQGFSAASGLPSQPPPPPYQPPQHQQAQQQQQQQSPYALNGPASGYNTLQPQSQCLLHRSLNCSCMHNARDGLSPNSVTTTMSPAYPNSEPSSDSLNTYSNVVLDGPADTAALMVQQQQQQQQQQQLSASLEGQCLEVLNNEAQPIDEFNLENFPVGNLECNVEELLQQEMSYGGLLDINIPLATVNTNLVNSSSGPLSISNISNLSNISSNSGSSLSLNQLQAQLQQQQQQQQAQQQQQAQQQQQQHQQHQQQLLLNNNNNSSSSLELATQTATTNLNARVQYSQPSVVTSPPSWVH

What was measured:
[1] = target: T1, Myc-tagged Arm (Drosophila melanogaster) (UniProt P18824); experiment: co-IP; S2 cells co-transfected with Flag-dFoxO and Myc-Arm for 48 h; pre-cleared lysates, indicated antibodies, protein G Sepharose beads, western blot; both directions
T1 sequence: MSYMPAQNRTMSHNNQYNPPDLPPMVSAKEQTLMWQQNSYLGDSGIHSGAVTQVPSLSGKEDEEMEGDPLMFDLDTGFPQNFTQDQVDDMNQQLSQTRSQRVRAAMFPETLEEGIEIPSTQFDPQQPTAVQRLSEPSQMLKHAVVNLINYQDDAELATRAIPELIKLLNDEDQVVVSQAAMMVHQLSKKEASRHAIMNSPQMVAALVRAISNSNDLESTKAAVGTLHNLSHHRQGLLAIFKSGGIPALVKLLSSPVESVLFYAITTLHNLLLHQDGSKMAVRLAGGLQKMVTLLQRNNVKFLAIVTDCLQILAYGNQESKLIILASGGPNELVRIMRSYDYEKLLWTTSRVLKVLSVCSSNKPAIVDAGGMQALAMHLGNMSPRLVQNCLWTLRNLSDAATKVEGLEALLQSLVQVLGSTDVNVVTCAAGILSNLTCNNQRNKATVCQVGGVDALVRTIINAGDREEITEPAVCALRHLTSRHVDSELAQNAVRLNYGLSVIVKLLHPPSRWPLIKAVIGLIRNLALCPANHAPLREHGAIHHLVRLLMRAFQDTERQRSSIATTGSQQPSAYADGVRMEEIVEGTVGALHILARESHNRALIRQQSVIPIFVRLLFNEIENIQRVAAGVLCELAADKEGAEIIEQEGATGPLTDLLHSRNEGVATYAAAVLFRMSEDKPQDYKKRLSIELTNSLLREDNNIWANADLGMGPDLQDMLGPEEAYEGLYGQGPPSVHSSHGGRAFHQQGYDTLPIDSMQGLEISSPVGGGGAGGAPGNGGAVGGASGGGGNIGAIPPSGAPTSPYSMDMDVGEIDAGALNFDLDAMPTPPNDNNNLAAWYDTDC

[2] = target: T2, Arm (ectopically expressed in the Drosophila eye) (Drosophila melanogaster) (UniProt P18824); experiment: co-IP; heads of flies co-expressing Arm and GFP-dFoxO in the eye, homogenized in lysis buffer; protein G Sepharose beads, western blot; both directions
T2 sequence: T1 sequence

[3] = target: Flag-tagged dFoxO (Drosophila melanogaster) (UniProt Q95V55); experiment: co-IP; S2 cells co-expressing Flag-dFoxO, Myc-Arm and HA-Pan; precipitation with an anti-Flag antibody, western blot
[4] = target: Flag-tagged dFoxO (Drosophila melanogaster) (UniProt Q95V55); experiment: co-IP; S2 cells co-transfected with Flag-dFoxO and Myc-Arm for 48 h; pre-cleared lysates, indicated antibodies, protein G Sepharose beads, western blot; both directions
[5] = target: GFP-dFoxO (Drosophila melanogaster) (UniProt Q95V55); experiment: co-IP; heads of flies co-expressing Arm and GFP-dFoxO in the eye, homogenized in lysis buffer; protein G Sepharose beads, western blot; both directions

binding [1]: binds
Molecule: Flag-tagged dFoxO (from UniProt Q95V55 1-613)

binding [2]: binds
Molecule: GFP-dFoxO (from UniProt Q95V55 1-613)

binding [3]: binds
binding [4]: binds
B1: Myc-tagged Arm (protein, UniProt P18824 1-843)
chain: T1 sequence

Second part, the molecule before the results:

B2: Arm (ectopically expressed in the Drosophila eye) (protein, UniProt P18824 1-843)
chain: T1 sequence
binding [5]: binds

B3: HA-Pan (protein, UniProt P91943 1-751)
chain: MPHTHSRHGSSGDDLCSTDEVKIFKDEGDREDEKISSENLLVEEKSSLIDLTESEEKGHKISRPDHSPVFNKLDTHAPSFNMGYLVSPYSYANGSPSGLPVTMANKIGLPPFFCHNADPLSTPPPAHCGIPPYQLDPKMGLTRPALYPFAGGQYPYPMLSSDMSQVASWHTPSVYSASSFRTPYPSSLPINTTLASDFPFRFSPSLLPSVHATSHHVINAHSAIVGVSSKQECGVQDPTTNNRYPRNLEAKHTSNAQSNESKETTNDKKKPHIKKPLNAFMLYMKEMRAKVVAECTLKESAAINQILGRRWHELSREEQSKYYEKARQERQLHMELYPGWSARDNYGYVSKKKKRKKDRSTTDSGGNNMKKCRARFGLDQQSQWCKPCRRKKKCIRYMEALNGNGPAEDGSCFDEHGSQLSDDDEDDYDDDKLGGSCGSADETNKIEDEDSESLNQSMPSPGCLSGLSSLQSPSTTMSLASPLNMNANSATNVIFPASSNALLIVGADQPTAQQRPTLVSTSGSSSGSTSSISTTPNTSSTVSPVTCMTGPCLGSSQERAMMLGNRFSHLGMGLSPPVVSTSTSKSEPFFKPHPTVCNNPIFALPSIGNCSLNISSMPNTSRNPIGANPRDINNPLSINQLTKRREYKNVELIEASESKTIVAHAATSIIQHVAVNGYHANHSLLNSNLGHLHHQLNNRTENPNRSEQTMLSVSNHSVNSSECHKESDSQAIVSSNPPNAGSSDNGVISVS
binding [3]: binds
